Results published in patent US20110098223A1 (priority 2008, published 2011).

Assay: general procedure: Fmoc solid-phase peptide synthesis
Conditions: whole synthesis, analytical HPLC and mass spectrometry

H EAKSQGGSD-NH2
final HPLC purity: >95%
